Test results reported in PubChem BioAssay AID2685 (National Center for Advancing Translational Sciences (NCATS), 2010).
The whole screen tested about 320,000 compounds, of which about 2,100 (0.66%) were called active. The shares of active, inactive and inconclusive entries below differ from those in the screen. Calls come from the whole dose curve; as a rule, active = well fitted inhibition curve with a large enough effect in the signal ratio, with a control signal flat (not every such curve was filed as active); inconclusive = small, poorly fitted or top-dose-only effect, or effect the other way, or a change in a side signal; inactive = flat fitted curve, though single readings scatter; the % refers to the signal ratio. A potency beside an inconclusive call is a rough fit, not a confirmed value.

Test: qHTS Assay for Lipid Storage Modulators in Drosophila S3 Cells
Conditions: BODIPY lipid droplet fluorescence, 18-24 h, cells fed with added oleic acid; lipid storage change, negative = inhibition: at 46.1 µM (top of the series) unless noted
Outline: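 Drosophila S3 cells got compounds at several concentrations plus oleic acid (400 uM solution). Laser-scanning cytometry with 488 nm excitation read lipid droplets at 500-530 nm and cells at 575-640 nm. Percent activity was relative to 20 uM Triacsin C.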
% is set by controls: 0 for no effect and ±100 for the full control effect; potency is the fitted concentration of half-maximal effect.

Row | SMILES | lipid storage change, negative = inhibition | Potency
1 | CC(=O)c1cccc(OCc2cc(C(=O)N(C)CCC3CCOCC3)no2)c1 | inconclusive: 1.82% | –
2 | COc1ccc(Cl)cc1-n1c(C)cc(C(=O)OCC(=O)N2CC(=O)Nc3ccccc32)c1C | inconclusive: 22.9% | –
3 | Cc1ccc(C(C)(O)CS(=O)(=O)Cc2ccccc2Cl)cc1 (centres undefined) | inconclusive: 8.12% | –
4 | CCOC(=O)COn1c(=O)c(-c2ccco2)[n+]([O-])c2ccccc21 | inconclusive: -60% | –
5 | COc1ccc(C(=O)CNc2ccccc2C#N)cc1 | inconclusive: 46.6% | –
6 | CCCN(CC1CC1)C(=O)COC(=O)c1ccc(CNS(=O)(=O)c2ccc(F)c(Cl)c2)cc1 | inconclusive: -30.4% | –
7 | COCCCNC(=S)Nc1ccc(OC(F)F)cc1C | inconclusive: 0.234% | –
8 | CCOC(=O)c1ccc(NC(=O)CSc2nc3c(c(=O)n2CC)SC(C)C3)cc1 (centres undefined) | inconclusive: -75.2% | –
9 | Cc1cc(O)c(C(C)C)cc1NC1=NS(=O)(=O)c2ccccc21 | inactive: -22.4% | –
10 | COc1cccc(/C=N/NC(=O)CSc2nnc(C)n2-c2ccccc2)c1OC | inconclusive: -28.8% | –
11 | O=c1cc(-c2ccccc2)c2ccccc2[nH]1 | – | inconclusive: 23.1 µM [activator, single point]
12 | COc1ccc(CNC(=O)C(c2ccc(C)o2)N(Cc2cccs2)C(=O)Cc2cccs2)cc1 (centres undefined) | – | inconclusive: 2.91 µM [falling, full curve, poor fit]
13 | CC1(C)CC(=O)C/C(=N\NC(=O)C2C3CCCCC32)C1 (centres undefined) | inconclusive: -11.5% | –
14 | COc1cc(/C=C(\C#N)c2ccccn2)ccc1OCc1ccccc1Cl | inconclusive: -19% | –
15 | Cc1ccc(S(=O)(=O)N(CC(=O)N/N=C/c2cccc3c2OCCO3)c2ccccc2F)cc1 | – | inconclusive: 2.31 µM [rising, full curve]
16 | COc1cccc(NC(=O)CN(C)C(=O)C(CCSC)NC(=O)c2ccco2)c1 (centres undefined) | inconclusive: 8.98% | –
17 | CC(=O)OCC1=C(C(=O)O)N2C(=O)C(NC(=O)C(C)Cn3nc(C)c(Cl)c3C)C2SC1 (centres undefined) | inconclusive: -19.6% | –
18 | O=C(OCc1nc2ccsc2c(=O)[nH]1)c1ccc(Cl)s1 | inconclusive: 4.32% | –
19 | CCN(C(=O)c1cc2cc(OC)ccc2oc1=O)c1cccc(C)c1 | inconclusive: 101% | –
20 | COc1ccc(/C=N/NC(=O)CCc2c(C)n[nH]c2C)cc1O | inconclusive: 40.2% | –
21 | CN1C(=O)/C(=C/c2cn(CC(=O)NCc3ccco3)c3ccccc23)NC1=S | – | inconclusive: 14.6 µM [falling, single point]
22 | COc1cccc(CNC(=O)C(=O)NCCC2CCCCN2S(=O)(=O)c2ccc(C)cc2)c1 (centres undefined) | inconclusive: -72.4% | –
23 | CN(C)c1ccc(-n2cc3c(=O)n(C)c(=O)n(C)c3c2)cc1 | inconclusive: 15.8% | –
24 | CC1=Nc2ccc(Br)cc2C(c2ccccc2)N1CC(=O)NN (centres undefined) | – | inconclusive: 1.46 µM [cytotoxic, partial curve]
25 | C=CCOC(=O)c1[nH]c2c(c1C)C(=O)CC(c1cc(OC)c(OC)c(OC)c1)C2 (centres undefined) | inconclusive: -30% | –

In another format: results already given.

| Row | SMILES | lipid storage change, negative = inhibition | Potency |
| --- | --- | --- | --- |
| 23 | CN(C)c1ccc(-n2cc3c(=O)n(C)c(=O)n(C)c3c2)cc1 | inconclusive: 15.8% | – |
| 24 | CC1=Nc2ccc(Br)cc2C(c2ccccc2)N1CC(=O)NN (centres undefined) | – | inconclusive: 1.46 µM [cytotoxic, partial curve] |
| 25 | C=CCOC(=O)c1[nH]c2c(c1C)C(=O)CC(c1cc(OC)c(OC)c(OC)c1)C2 (centres undefined) | inconclusive: -30% | – |

(more compounds)

Row | SMILES | lipid storage change, negative = inhibition | Potency
26 | CNC(=O)COC(=O)c1ccc2c(c1)NC(=O)C1CCCN21 (centres undefined) | inconclusive: 3.16% | –
27 | CCOc1ccc(N(Cc2cc3ccc(C)cc3[nH]c2=O)S(=O)(=O)c2ccccc2)cc1 | – | inconclusive: 1.64 µM [falling, partial curve, poor fit]
28 | CCOC(=O)c1sc(NC(C)=O)cc1C | – | inconclusive: 8.2 µM [rising, partial curve]
29 | CCc1c(C)nc2nc(NC(C)=O)[nH]n2c1=O | inconclusive: -28.6% | –
30 | COc1cc(C)c(C(C)C)cc1S(=O)(=O)NC1CC(C)(C)NC(C)(C)C1 | – | inconclusive: 16.4 µM [activator, partial curve]
31 | Cc1nn(C(C)CC(=O)O)c(C)c1C (centres undefined) | – | active: 23.1 µM
32 | COc1cc(/C=C/C(=O)OCC(=O)NCc2cccs2)ccc1OCC#N | inconclusive: 23.1% | –
33 | COc1cccc(NC(=O)N2CCCC2C(=O)NCC(C)C)c1 (centres undefined) | – | inconclusive: 2.59 µM [falling, full curve]
34 | O=S1(=O)CCC(NS(=O)(=O)c2ccc3ccccc3c2)C1 (centres undefined) | – | inconclusive: 6.51 µM [activator, single point]
35 | COc1ccc(OC)c(S(=O)(=O)N2CCC(C(=O)NCc3ccccn3)CC2)c1 | inconclusive: 45.5% | –
36 | CCOC(=O)N1CCN(C(=O)/C(=C/c2ccc(F)cc2)NC(=O)c2ccccc2)CC1 | – | inconclusive: 29.1 µM [falling, single point]
37 | CCOC(=O)N1CCC(Nc2nc(OC)nc(OC)n2)CC1 | inconclusive: -0.0886% | –
38 | Cc1csc(SCC(=O)NC(=O)NCCC(C)C)n1 | inconclusive: 16.5% | –
39 | O=C(CC1OC(=O)c2ccccc21)Nc1ccc(Cl)c(S(=O)(=O)N2CCCCC2)c1 (centres undefined) | – | inconclusive: 0.82 µM [activator, full curve]
40 | CC(=O)Nc1sc(C)c(C)c1C(=O)OCCOc1ccccc1 | – | inconclusive: 20.6 µM [falling, single point]
41 | COc1ccc(-c2nnc(N(C)C(=O)c3cccnc3)s2)cc1 | – | inconclusive: 1.3 µM [activator, full curve, poor fit]
42 | C[n+]1ccc(/C=N/Nc2nc(Cl)c(C#N)c(Cl)c2Cl)cc1 | inconclusive: -7.21% | –
43 | CCOC(=O)Cn1cnc2c(nnn2-c2ccc(C)cc2)c1=O | inconclusive: 30.7% | –
44 | O=C(Nc1ccc2c(c1)OCO2)c1ccc(Br)o1 | inconclusive: -16% | –
45 | COc1ccc(OC)c(S(=O)(=O)NCCCn2ccnc2)c1 | – | inconclusive: 6.51 µM [activator, partial curve, poor fit]
46 | COc1ccc(NC(=O)c2cc(OC)c(OC)cc2OC)c(S(=O)(=O)N2CCOCC2)c1 | – | inconclusive: 5.8 µM [activator, single point]
47 | COc1ccc(NC(=O)CC2SC(N3CCOCC3)=NC2=O)c(OC)c1 (centres undefined) | inconclusive: 4.52% | –
48 | COc1ccccc1NC(=O)C(C)OC(=O)C1CCN(S(=O)(=O)c2ccc(C)c(C)c2)CC1 (centres undefined) | inconclusive | –
49 | COc1ccc(CCNC(=O)COC(=O)c2cnc(C)cn2)cc1 | inconclusive: -4.35% | –
